The target of test [1] is T1, YqgP-sfGFP (functional fusion of Bacillus subtilis rhomboid protease YqgP with sfGFP) (Bacillus subtilis) (UniProt P54493).
T1 sequence: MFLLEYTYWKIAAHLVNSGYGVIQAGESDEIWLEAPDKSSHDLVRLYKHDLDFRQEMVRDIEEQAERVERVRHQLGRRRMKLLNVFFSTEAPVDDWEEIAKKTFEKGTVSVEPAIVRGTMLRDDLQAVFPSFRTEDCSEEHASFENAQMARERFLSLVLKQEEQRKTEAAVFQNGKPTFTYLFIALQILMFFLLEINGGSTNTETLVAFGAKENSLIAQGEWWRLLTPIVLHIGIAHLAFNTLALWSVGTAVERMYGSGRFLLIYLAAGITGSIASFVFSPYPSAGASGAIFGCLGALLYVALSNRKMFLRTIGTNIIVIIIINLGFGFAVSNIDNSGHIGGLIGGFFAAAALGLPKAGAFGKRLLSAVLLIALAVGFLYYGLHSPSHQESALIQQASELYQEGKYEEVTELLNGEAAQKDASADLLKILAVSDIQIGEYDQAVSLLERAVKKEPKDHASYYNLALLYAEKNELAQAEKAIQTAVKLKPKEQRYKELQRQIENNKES
Kind of test: affinity purification with mass spectrometry; YqgP-sfGFP baits captured on anti-GFP antibody resin (Chromotek) from B. subtilis membranes solubilised with 1% NP-40, 3 h at 4°C; label-free NanoLC-MS/MS; control: wild-type strain BTM2 without bait.

Test [2] addresses T2, YqgP.S288A-sfGFP (catalytically dead YqgP fused with sfGFP) (Bacillus subtilis) (UniProt P54493).
T2 sequence: T1 sequence with S288A
The test is described as above.

Substitutions are numbered along the chain they refer to. These are yes or no findings as the source states them, for the method shown. Binding seen in cells or lysates may run through a third protein. A yes stands for co-enrichment or nearness to the bait. Other partners may have been found. Where a sequence is shown, tags or fusion partners need not be part of it.

B1: MgtE, high-affinity magnesium transporter (protein, UniProt O34442 1-451)
chain: MVQNMTYDELILRIIILLRDGKIRDFRSVIDELQPYDMAFIFKEMPEKHRARYLSYLTVDDITDMIGELEREFQLVVLNKVGKTKATLAMNKMDNDDLAQLLEEMDEELKEQLLSSMEASESKAVQLLMNYPADSAGRMMTNRYVWIPQHYTVKDAVVKLKSFAEIAESINYLYVINESKQLVGVLSYRDLILGEPEEKVQDLMFTRVISADALQDQEEVARLIERYDFLAIPVVEENNVLVGIVTVDDIIDVVIREADEDYEKFAASGKDITFDTKAYVAAYRRLPWLILLLFIGLISGSIISYFEDALKQVVALAFFMPMVSGMTGNTGTQSLAVVIRGLSKEEMNKKTIVRLIFREFRTSIFIGAVCSVLIAIVSIIWQGNALLGFVVASSLFLTLIIGTMSGTIIPIILHKLKVDPAIASGPLITTLNDILSLLIYFGIATAFIHSL
Turning to B1, the binding result in test [1] and in test [2] was “binds” in each case.

B2: ATPase subunit F (protein, UniProt P37814 1-170)
chain: MSQLPLELGLSFNGGDILFQLLAMLILLALLKKYALGPLLNIMKQREDHIAGEITSAEEKNKEAQQLIEEQRVLLKEARQESQTLIENAKKLGEKQKEEIIQAARAESERLKEAARTEIVKEKEQAVSALREQVASLSVMIASKVIEKELDEQAQEKLIQDYLKEVGESR
As to B2, the binding entry in test [1] and in test [2] was “binds” throughout.

(Values after paper PMC7231995.)
